The values that follow come from paper PMC12061250.

By UniProt entry, the sequences of proteins in these tests, tags left out. Residues count along the entry.
UniProt P49841: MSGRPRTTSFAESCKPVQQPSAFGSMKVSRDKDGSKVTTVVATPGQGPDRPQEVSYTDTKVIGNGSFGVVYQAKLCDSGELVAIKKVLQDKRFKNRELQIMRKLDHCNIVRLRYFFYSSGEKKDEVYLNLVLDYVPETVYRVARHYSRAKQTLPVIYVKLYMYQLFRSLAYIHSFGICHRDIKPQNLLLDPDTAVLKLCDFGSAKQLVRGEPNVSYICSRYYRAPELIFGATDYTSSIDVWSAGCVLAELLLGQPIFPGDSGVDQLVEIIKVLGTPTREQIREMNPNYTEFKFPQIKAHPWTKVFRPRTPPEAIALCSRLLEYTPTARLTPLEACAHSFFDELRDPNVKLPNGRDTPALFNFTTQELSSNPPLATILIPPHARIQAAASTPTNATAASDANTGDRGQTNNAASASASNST
UniProt P11021, residues 19-654: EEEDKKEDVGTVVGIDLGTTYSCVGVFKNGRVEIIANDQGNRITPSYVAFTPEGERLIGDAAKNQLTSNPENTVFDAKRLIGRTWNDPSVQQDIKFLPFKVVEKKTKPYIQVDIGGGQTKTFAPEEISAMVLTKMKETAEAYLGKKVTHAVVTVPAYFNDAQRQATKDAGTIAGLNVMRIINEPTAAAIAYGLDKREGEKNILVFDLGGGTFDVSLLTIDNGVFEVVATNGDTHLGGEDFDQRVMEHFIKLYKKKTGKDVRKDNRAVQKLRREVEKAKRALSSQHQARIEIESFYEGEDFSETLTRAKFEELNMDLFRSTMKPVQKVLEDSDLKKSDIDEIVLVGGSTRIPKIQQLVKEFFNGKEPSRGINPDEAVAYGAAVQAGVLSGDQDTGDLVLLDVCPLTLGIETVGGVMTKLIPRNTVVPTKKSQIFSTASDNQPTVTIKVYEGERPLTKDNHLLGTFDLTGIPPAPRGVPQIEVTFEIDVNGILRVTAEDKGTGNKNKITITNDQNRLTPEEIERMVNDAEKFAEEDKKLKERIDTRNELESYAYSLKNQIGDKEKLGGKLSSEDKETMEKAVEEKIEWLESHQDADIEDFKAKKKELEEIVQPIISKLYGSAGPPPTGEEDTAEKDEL

Results are given in words; binding and its absence hold for the method and conditions named. In cells and extracts the contact can be indirect. Some entries that bind do so weakly or less than the wild type.

The assay deals with Glycogen synthase kinase 3β (human (endogenous in macrophages from ITP patients)) (UniProt P49841). Briefly: co-IP; macrophage lysate (ITP patients; lanes M0, M1, M2) precipitated with anti GSK-3β antibody and protein A/G magnetic beads at 4 °C overnight; western blot.

As for “HSPA5 (also known as GRP78 and BiP) (from UniProt P11021 19-654)”, the binding entry is recorded as “binds”.
